Reference: the supplement of paper PMC5949888
Most values lie at the floor of the assay. Slopes are relative: functional sequences can read slightly below zero.

System: Saccharomyces cerevisiae PS128 hsf1 delta, HSF1(1-493) fusion
Assay: growth estimate (transactivation domain function in HSF1 fusion, heat-shock survival) (a.u. (slope of normalised read count over time)); higher = stronger growth at 37°C, i.e. more transactivation activity
Conditions: library: random library

Substance | growth estimate
GWRFANQSTTRGPECLRFPV | < -0.25
VTRMHGSPLLPEVNCEEFRT | < -0.25
DKYRRYYRWCWKEGVTSSKL | < -0.25
GFMFIRLCITL | < -0.25
PGTFERATAGIGLEIWVDGF | < -0.25
SLQPVFTGT | < -0.25
IHCRRVRWFRSIGSSV | < -0.25
RADMIA | < -0.25
LVAGVGGGVLVWCGKSPQDV | < -0.25
RMPGTM | < -0.25
RVCVCGDVPWDLVI | -0.0547
AARDQY | < -0.25
NGDLEVLQRRVTRQVPSKPV | < -0.25
SLPASPRVARRSMCFPRG | < -0.25
WFLGRRTHTLTPTPARAART | < -0.25
HKSRNRRRPIGRKPRNLRKK | < -0.25
LFDARVDCRVHHLL | < -0.25
HHKVGTYAIGTSLTRFLFID | < -0.25
CNASYTWIWAAL | < -0.25
GYGTYNAMLSY | < -0.25
GNQ | < -0.25
TFRKAKESGILV | < -0.25
SGATP | < -0.25
NVAAFAWVKNGWLMRFPAAE | < -0.25
SPISSDL | < -0.25
RIMFCSPLWFLVLYHGSKSE | < -0.25

Substance | growth estimate
VMGIR | < -0.25
SALSWSKFASTAAVRLNYID | < -0.25
GATRIGLALYSFNFMRFLRK | < -0.25
TPFKNAWTLNDFC | < -0.25
ATPRGEGHLRPRVSEYIGSY | < -0.25
HDTSWKVDQGKRAADHTPSQ | < -0.25
QPLSNSWVTELTSRVIQVLR | < -0.25
RRFVLSSVQETLAWFKCIRR | < -0.25
SHNQVDIQRRVTAISRRLLT | < -0.25
SPADEPRCQRRLKVKANRFG | < -0.25
PGFMVTEPGGSVTWLEAPSL | < -0.25
SSGTAQMWGCHVGHDACTNR | < -0.25
ACRASKLGLSADSDF | < -0.25
LPNMGRRSVGTNRTSVTRLW | < -0.25
IFQARIAGHVTGKAL | < -0.25
LSCVPTVELTGDDPHWNPDR | < -0.25
WSRGRTSWN | < -0.25
VVSSMRVKWRLVNWLKCTSA | < -0.25
LVVLSASADRYRIHCRAMLR | < -0.25
VRVFNPEVRLKTLGYLN | < -0.25
VLRPAKERAWWGKCRRTVL | < -0.25
EGAISSYRALHWQ | < -0.25
LRLTLYTPNGVGSFGSVSQG | < -0.25
RRLAEGTGPCVYYNR | < -0.25
VTCT | < -0.25
GFRCGQLVRLRIRGHVVRPS | < -0.25

Substance | growth estimate
SRTRQPGGSFRCMGEGLITN | < -0.25
SRVGEC | < -0.25
GFRSAVKSQSSLGEITRFGD | < -0.25
LILCRRIDPRIRNDHSMAVH | < -0.25
YRASQVAASAVCG | < -0.25
EDITDAGVSL | < -0.25
GYIRLDRVGFSRRARHVVSY | < -0.25
LGDPNQGL | < -0.25
PIGALRDQHGPEVLPLSFIS | < -0.25
TQCFSIVP | < -0.25
VRWLLNWWL | < -0.25
LYKLPTSCPFRGVVCIRRVG | < -0.25
QEDKGRTPVSGPRSDPAHRV | < -0.25
GQGGLYAQSLNHGLYRLSGS | < -0.25
GHLGASK | < -0.25
TYV | < -0.25
SWFTPRGILDLRSLSEGTQT | < -0.25
QIT | < -0.25
GEQPINVHV | < -0.25
VPNILTGHWDLQPKITSC | < -0.25
ERLMSGSESHLNRKSTARDP | < -0.25
SGWWG | < -0.25
PMFQAGEGMRDSDGLMGTSE | < -0.25
QEGVGMTILNSMVVAPPRCT | < -0.25
KKGVRWRHY | < -0.25
WGTGCLEGCRVCASHSPRAV | < -0.25

Substance | growth estimate
EQGHLG | < -0.25
LEAR | < -0.25
DGVSTWYG | < -0.25
RRTCRLRIEPGGFRPSCSGG | < -0.25
WPKPLLMAKFNQERS | < -0.25
IQRFWIKPSAMEGAGSICTV | < -0.25
IFFSTRSHTR | < -0.25
VPAERLARVPRPVFRKIHCT | < -0.25
RRTNDHTRNLYLPNMSVKHH | < -0.25
GVSDVGSNTEPPWGAIVSWP | < -0.25
CPFLTPVRFIGSPSVYTLWA | < -0.25
TGWMRRKALFVFWHRVQHLP | < -0.25
PSHLTLSLRAVAWLLAVMRV | < -0.25
CTLLMFIFAFLQCSAVLVSP | < -0.25
VPNGSIDLSNCHNWLTRAGH | < -0.25
GVGSRAVKNWTLWHSLYRAR | < -0.25
TRLDSRLQLI | < -0.25
KPDKAPGRDPIWGPFHSALT | < -0.25
WGGRFLASGGR | < -0.25
FCTFEILVQKSNNAAPVRSS | < -0.25
RVFISTSSLLSALVWIPGGD | < -0.25
SRASQLSYAGDRLVRGA | < -0.25
GGNNDAWRLCKGRFWAAVAW | < -0.25
RRTRVSTMTCDLGVSRCLGA | < -0.25
IVYFGHMDGLAP | < -0.25
FPGPLRSCVRWRQ | < -0.25

Individual results from the list:
GGNNDAWRLCKGRFWAAVAW | growth estimate: < -0.25
EQGHLG | growth estimate: < -0.25
KPDKAPGRDPIWGPFHSALT | growth estimate: < -0.25

Carrying on:

Substance | growth estimate
YGVLRFVCTRNRPSSVWGAM | < -0.25
TAWYPTP | < -0.25
LGIESNCMVFFLAGVGAEAR | < -0.25
FIEMQCPSGCNGTCGPTAGE | < -0.25
SREFICECRSSTLPAKETIT | < -0.25
VSPHYLATPS | < -0.25
LKTVLSLV | < -0.25
ASVNHEPLHPETGRCASCVG | < -0.25
SVPVWLLGETIVTNCLPCCP | < -0.25
SDSTSGAVSLRYGISFVQH | < -0.25
LNGRTKLSIRNGPNQLRRDI | < -0.25
STRPCMGKYGRK | < -0.25
RVGKDW | < -0.25
DGSFGEERAYNLRWGLRLVP | < -0.25
SSSRPSIINYWNVSHSCSPP | < -0.25
QSKYYDVVGHHLGHRIG | < -0.25
KRS | -0.231
KLGLILTTS | < -0.25
SCPQRFKLVLPCVATRIDVS | < -0.25
PQGGPSH | < -0.25
VLGYYES | < -0.253
PARGEHVCRATH | < -0.25
GRHAQRRLKSGIAIENKGHP | < -0.25
VHTTY | < -0.25
LDTVASWSRLLISLRIANAS | < -0.25
LINLFQVVVLVPAFFCENQE | < -0.25

A stretch from the list above, as a working copy:
Substance | growth estimate
GEQPINVHV | < -0.25
VPNILTGHWDLQPKITSC | < -0.25
ERLMSGSESHLNRKSTARDP | < -0.25

Later entries:

Substance | growth estimate
NVTEGDLLRKCRGNCAFSKA | < -0.25
RNRTPVCNIRSVSLSIFVAR | < -0.25
RATPVYCCALLASTRGNRAS | < -0.25
APWVAFHWES | < -0.25
VGRPSWPGKKSPFRRYSPPC | < -0.25
RDGNAESGR | < -0.25
WPTSTFKCRPQQLSPSCSSC | < -0.25
GALHWLNGRPWRR | < -0.25
QVIHPVRARRSCAPMESPPT | < -0.25
VLGLMGVIQSI | < -0.25
TVDGFLWFAILYCT | < -0.25
PREHSQGGFEARNGLLHV | < -0.25
LGFCGDNHPNTKALIGRLWE | < -0.25
SPPRTKERGPL | < -0.25
GNNCVMQLDSFVILSARLCS | < -0.25
DKHPPSVLTPSVCPRGVLHA | -0.245
NQKSWGQSSVEITGDPPTAY | < -0.25
RSQLGV | < -0.25
STLGGCPYNCRTWTVIPIGV | < -0.25
DESRRRATSVLLRVPLQTLR | < -0.25
VVEVRISYLDHSVRKPNALN | < -0.25
WTCGCRAHAMLF | < -0.25
IQDRLSGADCLLSRSGQYMF | < -0.25
SWQVD | < -0.25
LIHHVSARRFIGCDK | < -0.25
